Laboratory results from PMC6882211.
No constants are given. Whether binding was seen depends on the method and setting. Binding seen in cells or lysates may run through a third protein. A result given as binding can be weak or reduced; the word gives no strength. Tags and fused reporters may be left off the sequences shown.

Target: T1, pTAC10-HA (Arabidopsis thaliana) (UniProt F4JF21)
T1 sequence: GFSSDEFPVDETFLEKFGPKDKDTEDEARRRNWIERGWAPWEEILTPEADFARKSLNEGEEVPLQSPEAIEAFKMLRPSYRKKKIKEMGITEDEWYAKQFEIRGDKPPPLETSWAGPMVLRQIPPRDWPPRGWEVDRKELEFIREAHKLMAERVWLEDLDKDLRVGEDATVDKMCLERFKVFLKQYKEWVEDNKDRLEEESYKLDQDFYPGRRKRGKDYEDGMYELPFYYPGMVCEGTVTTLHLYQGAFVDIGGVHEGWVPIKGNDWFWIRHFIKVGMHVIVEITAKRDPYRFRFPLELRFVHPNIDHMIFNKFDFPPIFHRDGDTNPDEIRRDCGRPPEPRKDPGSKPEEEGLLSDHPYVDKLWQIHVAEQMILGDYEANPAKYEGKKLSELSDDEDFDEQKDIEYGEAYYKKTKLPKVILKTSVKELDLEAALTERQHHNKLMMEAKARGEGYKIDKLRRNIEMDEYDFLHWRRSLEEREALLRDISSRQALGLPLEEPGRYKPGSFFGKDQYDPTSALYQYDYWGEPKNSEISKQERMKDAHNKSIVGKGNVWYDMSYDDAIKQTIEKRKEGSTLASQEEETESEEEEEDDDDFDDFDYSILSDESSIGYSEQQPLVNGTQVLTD
Test: co-IP; protoplasts from 35S::FSD3-GFP or 35S::FSD3S-GFP plants transformed with 35S::pTAC10-HA; HA antibody precipitates, GFP antibody detects; as in Chang et al. (2017) with slight modification

In the case of FSD3S-GFP (Arabidopsis thaliana), the binding is reported as “binds”.
